Measurements published in patent publication US20240410898A1, “METHOD FOR DETECTING PROTEIN HAVING CHANGES IN ENERGY STATE, OR AFFINITY OF LIGAND TO PROTEIN” (DALIAN INSTITUTE OF CHEMICAL PHYSICS, CHINESE ACADEMY OF …, priority 2022, published 2024).
At least one structure is not confirmed: it was looked up by name or label, or the drawing left a doubt.

What was measured:
Format in all cases: binding
Conditions in all cases: 100 μM
PRDX family proteins = assay: dimethyl labeling-based PELSA, PRDX family
MAT2A and AKR1C2 = assay: dimethyl labeling-based PELSA, MAT2A and AKR1C2
PRDX5 and NQO1 = assay: dimethyl labeling-based PELSA, PRDX5 and NQO1

Compound: COC1=C2C[C@@H](C)C[C@H](OC)[C@H](O)[C@@H](C)/C=C(\C)[C@H](OC(N)=O)[C@@H](OC)/C=C\C=C(/C)C(=O)NC(=CC1=O)C2=O [geldanamycin]
- log 2FC of PRDX family proteins (destabilization) (PRDX family proteins): > 1.4
- stabilizing effect on AKR1C2 in PELSA (MAT2A and AKR1C2): smaller stabilizing effect
- off-target proteins PRDX5 and NQO1 (PRDX5 and NQO1): identified PRDX5 and NQO1 as shared off-target proteins
